Test results: article PMC5626701, “Caspase-1 cleaves PPARγ for potentiating the pro-tumor action of TAMs” (Nature Communications, 2017)
Results are given in words; binding and its absence hold for the method and conditions named. In cells and extracts the contact can be indirect. Some entries that bind do so weakly or less than the wild type.

Chains of the proteins cited; added tags and fusions are not shown. Residues count along the entry.
UniProt P37231, residues 29-505: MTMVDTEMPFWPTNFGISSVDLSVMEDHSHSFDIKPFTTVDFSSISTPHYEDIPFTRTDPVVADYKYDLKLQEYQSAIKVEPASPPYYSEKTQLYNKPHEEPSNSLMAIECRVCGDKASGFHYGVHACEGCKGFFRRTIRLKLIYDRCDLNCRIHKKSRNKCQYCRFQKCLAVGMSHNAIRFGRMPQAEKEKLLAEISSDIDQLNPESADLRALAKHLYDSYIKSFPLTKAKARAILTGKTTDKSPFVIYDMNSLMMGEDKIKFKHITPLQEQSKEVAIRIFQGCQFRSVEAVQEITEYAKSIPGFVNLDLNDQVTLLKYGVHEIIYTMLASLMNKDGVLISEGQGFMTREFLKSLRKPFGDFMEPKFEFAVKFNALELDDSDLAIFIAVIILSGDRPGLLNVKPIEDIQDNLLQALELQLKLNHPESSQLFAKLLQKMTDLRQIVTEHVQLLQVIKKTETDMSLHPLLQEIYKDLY

Biological target: HA-tagged full-length PPARγ (THP-1) (human) (UniProt P37231)
Assay: co-IP; THP-1 cells transfected with HA-PPARγ or HA-tPPARγΔ64D; extracts precipitated with anti-HA and blotted with anti-MCAD, or precipitated with anti-MCAD and blotted with anti-HA; blots scanned

binding: binds
B1: medium-chain acyl-CoA dehydrogenase (MCAD), endogenous in THP-1 (enzyme, human (endogenous in THP-1), UniProt P11310 26-421, looked up)
chain: KANRQREPGLGFSFEFTEQQKEFQATARKFAREEIIPVAAEYDKTGEYPVPLIRRAWELGLMNTHIPENCGGLGLGTFDACLISEELAYGCTGVQTAIEGNSLGQMPIIIAGNDQQKKKYLGRMTEEPLMCAYCVTEPGAGSDVAGIKTKAEKKGDEYIINGQKMWITNGGKANWYFLLARSDPDPKAPANKAFTGFIVEADTPGIQIGRKELNMGQRCSDTRGIVFEDVKVPKENVLIGDGAGFKVAMGAFDKTRPVVAAGAVGLAQRALDEATKYALERKTFGKLLVEHQAISFMLAEMAMKVELARMSYQRAAWEVDSGRRNTYYASIAKAFAGDIANQLATDAVQILGGNGFNTEYPVEKLMRDAKIYQIYEGTSQIQRLIVAREHIDKYKN
notes: medium-chain acyl-CoA dehydrogenase (MCAD), mitochondrial; detected and precipitated with an anti-MCAD antibody; source: endogenous, THP-1 cell extract
